The numbers were not newly measured in PMC5452965 (PeerJ, 2017), which cites them from elsewhere.

One data set concerns Hela cells. The following applies: MTT, 48 h; ref Wang et al. (2016a); cited from earlier work.
A further data set deals with U2OS cells. To be noted: MTT, 48 h; ref Wang et al. (2016a); cited from earlier work.
The next data set relates to MCF-7 cells. To be noted: MTT, 72 h; ref Wang et al. (2016a); cited from earlier work.

As for `COc1cc2c(c(OC)c1OC)-c1ccc(OC)c(=O)cc1[C@@H](NC(C)=O)CC2` [Colchicine, colchicine], the IC50 is 14.9 ± 3.94 nM with Hela cells, 25.2 ± 19.6 nM in the data set on U2OS cells and 30.3 ± 8.02 nM in the data set on MCF-7 cells.

The IC50 is the point on the concentration scale where inhibition reaches its midpoint.
